Results deposited as PubChem BioAssay AID1508597 (Cure First, 2020).

Aim: 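Genes whose silencing sensitises or protects ovarian cancer cells against rucaparib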 (primary screen)
Cells: human ovarian carcinoma lines grown from tumours: OCI-P5x (papillary serous) and OCI-C5x (clear cell)
Reagents: siRNA pool against human genes, 1.25 pmol siRNA per well
Duration: 72 h or 96 h, depending on the cell culture
Treatment: rucaparib 20 µM (about IC30) or vehicle, present until read-out
Rucaparib or vehicle: Rucaparib
Cell line: OCI-P5x (serous)
Detection: 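ATP luminescence measured at 72 or 96 h according to the culture, then normalised and expressed as percent viability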
Direction: viability, normalised: higher = more viable cells remaining
Rule for the call: 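a well counts as a hit if its normalised viability is under 80 percent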
Calls: active = viability under 80%; inactive = viability 80% or more
Shown is a random part of the about 2,100 reagents, in one setting of the screen. 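Calls flag viability under 80% in either arm, not effects specific to rucaparib; the reference for percent is not stated.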 A reagent listed more than once was tested more than once; the source does not tell the runs apart. Not stated in the record: the 100% reference.

SMARCAD1, technical replicate 1: viability, normalised (%) = 48.5; Outcome = active
SMARCAD1, technical replicate 2: viability, normalised (%) = 60.9; Outcome = active
SMARCAD1, technical replicate 3: viability, normalised (%) = 51.3; Outcome = active
CAMK4, technical replicate 1: viability, normalised (%) = 110; Outcome = inactive
CAMK4, technical replicate 2: viability, normalised (%) = 99.8; Outcome = inactive
CAMK4, technical replicate 3: viability, normalised (%) = 98.2; Outcome = inactive
CHD7, technical replicate 1: viability, normalised (%) = 64.5; Outcome = active
CHD7, technical replicate 2: viability, normalised (%) = 67.5; Outcome = active
CHD7, technical replicate 3: viability, normalised (%) = 69.7; Outcome = active
SLK, technical replicate 1: viability, normalised (%) = 69.5; Outcome = active
SLK, technical replicate 2: viability, normalised (%) = 88.3; Outcome = inactive
SLK, technical replicate 3: viability, normalised (%) = 81.5; Outcome = inactive
NTPCR, technical replicate 1: viability, normalised (%) = 80; Outcome = active
NTPCR, technical replicate 2: viability, normalised (%) = 85.4; Outcome = inactive
NTPCR, technical replicate 3: viability, normalised (%) = 68.9; Outcome = active
FOXA1, technical replicate 1: viability, normalised (%) = 54.4; Outcome = active
FOXA1, technical replicate 2: viability, normalised (%) = 61.8; Outcome = active
FOXA1, technical replicate 3: viability, normalised (%) = 57; Outcome = active
XRCC4, technical replicate 1: viability, normalised (%) = 87.2; Outcome = inactive
XRCC4, technical replicate 2: viability, normalised (%) = 112; Outcome = inactive
XRCC4, technical replicate 3: viability, normalised (%) = 89.3; Outcome = inactive
RCBTB1, technical replicate 1: viability, normalised (%) = 53.5; Outcome = active
RCBTB1, technical replicate 2: viability, normalised (%) = 41; Outcome = active
RCBTB1, technical replicate 3: viability, normalised (%) = 52.7; Outcome = active
JARID2, technical replicate 1: viability, normalised (%) = 59.8; Outcome = active
JARID2, technical replicate 2: viability, normalised (%) = 67.5; Outcome = active
JARID2, technical replicate 3: viability, normalised (%) = 23.2; Outcome = active
NTRK1, technical replicate 1: viability, normalised (%) = 52.6; Outcome = active
NTRK1, technical replicate 1: viability, normalised (%) = 31.6; Outcome = active
NTRK1, technical replicate 1: viability, normalised (%) = 119; Outcome = inactive
NTRK1, technical replicate 2: viability, normalised (%) = 45.1; Outcome = active
NTRK1, technical replicate 2: viability, normalised (%) = 52.1; Outcome = active
NTRK1, technical replicate 2: viability, normalised (%) = 120; Outcome = inactive
NTRK1, technical replicate 3: viability, normalised (%) = 43.7; Outcome = active
NTRK1, technical replicate 3: viability, normalised (%) = 75.4; Outcome = active
NTRK1, technical replicate 3: viability, normalised (%) = 81.6; Outcome = inactive
ATR, technical replicate 1: viability, normalised (%) = 91.8; Outcome = inactive
ATR, technical replicate 1: viability, normalised (%) = 86.9; Outcome = inactive
ATR, technical replicate 2: viability, normalised (%) = 78; Outcome = active
ATR, technical replicate 2: viability, normalised (%) = 85.2; Outcome = inactive
ATR, technical replicate 3: viability, normalised (%) = 74.8; Outcome = active
ATR, technical replicate 3: viability, normalised (%) = 66.8; Outcome = active
